{"source": "patent US20100040616A1", "about": "(published 2010)", "binders": {"B1": {"name": "mAb 9B7 (murine anti-human CD127 monoclonal antibody) (antibody, IgG1, V domains shown)", "VH": "QVQLQESGPGLVAPSQSLSITCTVSGFSLSRYNVHWVRQPPGKGLEWLGMIWDGGSTDYNSALKSRLSITKDNSKSQVFLKMNSLQTDDTAMYYCARNRYESGMDYWGQGTTVTVSS", "VL": "DIVMTQTPSSLTVTAGEKVTMSCKSSQSLLNSGNRKNYLTWYQQKPGQSPKLLIYWASTRESGVPDRFTGSGSGTDFTLIISSVQAEDLAVYYCQNDYTYPFTFGSGTKLEIKR"}, "B2": {"name": "mAb 6A3 (murine anti-human CD127 monoclonal antibody) (antibody, mouse IgG1, V domains shown)", "VH": "DVQLQESGPGLVKPSQSLSLTCTVTGYSITTDYAWNWIRQFPGNKLEWMGYIFYSGSTTYTPSLKSRISITRDTSKNQFFLQLNSVTTEDTATYYCARGGYDVNYFDYWGQGTTLTVSS", "VL": "DIQMTQSPASQSASLGESVTITCLASQTIGAWLAWYQQKPGKSPQLLIYAATRLADGVPSRFSGSGSGTKFSFKISSLQAEDFVSYYCQQFFSTPWTFGGGTKLEIK"}, "B3": {"name": "mAb 6C5 (murine anti-human CD127 monoclonal antibody) (antibody, mouse IgG1, V domains shown)", "VH": "EVKLLESGGGLVQPGGSLKLSCAASGFAFSAYWMSWVRQAPGKGLEWIGEINPDSSTINCTPSLKDKFIISRDNAKNTLSLQMNKVRSEDTALYYCARRLRPFWYFDVWGAGTTVTVSS", "VL": "DVLMTQTPLSLPVSLGDQASISCRSSQSIVQSNGNTYLEWYLQKPGQSPKLLIYKVSNRFSGVPDRFSGSGSGTDFTLKISRVEAEDLGVYYCFQGSHVPRTFGGGTKLEIK", "notes": "also called Antibody 6C5"}}, "key": {"[1]": {"molecular_target": "recombinant human CD127 extracellular domain (CD127 ECD) (human)", "test": "SPR (profile summary)"}, "[2]": {"molecular_target": "recombinant human CD127 extracellular domain (CD127 ECD) (human)", "test": "ELISA: recombinant human CD127 ECD coated at 5 ug/ml, 9B7 hybridoma material titrated, HRP goat anti-mouse IgG detection"}, "[3]": {"molecular_target": "recombinant human CD127 extracellular domain (CD127 ECD) (human)", "test": "Biacore blocking assay: CD127 ECD pre-incubated with antibody and injected over immobilised human IL-7; inhibition ratio = 1 - RU(sample)/RU(ECD)"}, "[4]": {"molecular_target": "recombinant human CD127 extracellular domain (CD127 ECD) (human)", "test": "Biacore blocking assay: 10 ug/mL CD127 ECD pre-incubated with 6A3 and injected over immobilised human IL-7 (the blocked ligand)"}, "[5]": {"molecular_target": "recombinant human CD127 extracellular domain (CD127 ECD) (human)", "test": "Biacore blocking assay: 10 ug/mL CD127 ECD pre-incubated with 6C5 and injected over immobilised human IL-7 (the blocked ligand)"}}, "note": "Results are given in words; binding and its absence hold for the method and conditions named. A result given as binding can be weak or reduced; the word gives no strength."}
{"binder": "B1", "values": [{"measurement": "binding", "setting": "[1]", "value": "binds"}, {"measurement": "binding", "setting": "[2]", "value": "binds"}]}
{"binder": "B2", "values": [{"measurement": "binding", "setting": "[3]", "value": "binds"}, {"measurement": "binding", "setting": "[4]", "value": "binds"}]}
{"binder": "B3", "values": [{"measurement": "binding", "setting": "[5]", "value": "binds"}, {"measurement": "binding", "setting": "[3]", "value": "binds"}]}
